For at least one entry, the source does not settle the construct or the ends of the probe.

The source of these data is publication PMC8408249.

This data set deals with MBP-LsAP2 (Lactuca sativa (cultivar S39)). Description: EMSA. The settings on record: LightShift Chemiluminescent EMSA Kit per manufacturer's instructions; pH and temperature not stated; recombinant protein; protein details: MBP (N-terminal, pMal-c2X).

Take “TTTACCTTTTTTTATTTTTATTTTTATTTTTTTCCTTTCTCATCTTTTTTTTCTTCCTTTCTTCTTTCC (double strand) [pLsKAN2-P3d probe]”: the binding result was “binds”.
